Laboratory results taken from PubChem BioAssay AID2417 (National Center for Advancing Translational Sciences (NCATS), 2010).
Among all 140,000 compounds or so, about 4,300 (3.1%) were called active. Inconclusive results, whose numbers are uncertain, are shown with a selection of clear calls.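 The calls were made as follows: active = readout at or below -70, meaning at least 70% loss of cells showing the perinucleolar compartment, a nuclear body marking cancer cells; inconclusive = readout between -30 and a set limit; inactive = the rest.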

experiment: High Content Assay for Compounds that inhibit the Assembly of the Perinucleolar Compartment; details: PC3M PTB-GFP, PNC prevalence imaging, 16 h; at 10 µM; active compounds read low;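 also: plate controls were DMSO wells for no effect and camptothecin positive control wells for full effect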
Outline: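 Read-out is percentage of cells bearing a perinucleolar compartment, from automated 20x imaging of fixed, Hoechst-stained PC3M PTB-GFP cells. Cells were seeded 4 h, then exposed 16 h to compound (23 nl of library stock) in duplicate plates.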

| SMILES | activity change (PNC), negative = inhibition |
| --- | --- |
| COc1ccc(NC2=CC(c3cccc(OC)c3)N(c3ccc(OC)cc3)C2=O)cc1 (configuration not stated) | inactive: -29% |
| COc1cc(C)c(C(C)C)cc1S(=O)(=O)N1CCOCC1 | inactive: -0.722% |
| c1ccc(-n2nnnc2NC2CCCCCC2)cc1 | inconclusive: -56.6% |
| CCOc1ccc2nc(C)cc(Nc3cccc([N+](=O)[O-])c3)c2c1 | active: -102% |
| COc1ccc(S(=O)(=O)Nc2ccc(O)c3ccccc23)cc1 | inconclusive: -30.8% |
| CCCOC(=O)CSc1nnc(-c2cc(OC)c(OC)c(OC)c2)o1 | inconclusive: -42.9% |
| COc1ccc(S(=O)(=O)N2CCCCCC2)cc1C(=O)OCc1c(C)noc1C | inactive: 27.8% |
| O=C(C(=O)N1CCCc2ccccc21)N1CCCc2ccccc21 | inconclusive: -34.1% |
| CC1CCC(C(C)C)C(OP(=O)(c2ccc(N(C)C)cc2)C(O)c2cccnc2)C1 (configuration not stated) | active: -114% |
| Cc1ccc2c(c1)C1CN(C)CCC1N2CC(=O)N(C)c1ccccc1 (configuration not stated) | inconclusive: -74.2% |
| Cc1nn(-c2ccccc2)c(Cl)c1/C=N/Nc1nc2ccccc2n1C | inconclusive: -54% |
| O=C(/C=C/c1ccc(Cl)cc1)NC(=S)Nc1ccc(NC(=O)c2ccco2)cc1 | active: -112% |
| CCn1cc(C(=O)NCCOC)c(=O)c2ccc(C)nc21 | inactive: -2.56% |
| COC(=O)c1ccc(CNC(=O)COC(=O)C23CC4CC(CC(C4)C2)C3)cc1 | inconclusive: -63.3% |
| O=C(CC1SC2=NCCN2C1=O)Nc1ccc(Br)cc1 (configuration not stated) | inconclusive: -60.1% |
| O=C(Cn1cc(C(F)(F)F)ccc1=O)N1CCN(S(=O)(=O)c2ccc(Cl)cc2)CC1 | inactive: -20.1% |
| O=C(Cn1nnc2ccccc21)c1cccc([N+](=O)[O-])c1 | inconclusive: -57.8% |
| CCn1c(SCC(=O)Nc2ccc(NC(=O)c3cccs3)cc2)nnc1-c1cccnc1 | inconclusive: -67.3% |
| CC(C)(C)n1nc2c(c1NC(=O)c1ccc(S(=O)(=O)N3CCCC3)cc1)CSC2 | inconclusive: -53.1% |

| SMILES | activity change (PNC), negative = inhibition |
| --- | --- |
| O=C(Nc1ccc(C(=O)N2CCCC2)cc1)c1ccc2c(c1)OCO2 | inactive: -17.1% |
| Cn1c(SCc2ccccn2)nnc1-c1ccncc1 | inconclusive: -35.8% |
| Cc1ccc(F)cc1NC(=S)NCCc1ccccc1 | inactive: -5.58% |
| c1coc(-c2nc3c([nH]2)CCc2nonc2-3)c1 | inconclusive: -30.1% |
| Cc1ccc(NC(=O)CSc2nnc(CSc3nc(C)cc(C)n3)n2Cc2ccco2)c(C)c1 | inactive: -7.76% |
| COc1ccc2c(c1)-c1nc(/N=C/c3ccccc3O)sc1CC2 | inactive: 23.3% |
| CCOC(=O)c1c(-c2ccccc2)csc1NC(=O)CSc1nc(C)cc(C)n1 | inconclusive: -44.5% |
| CC(C)c1ccc(NC(=O)CCN2C(=O)c3ccc([N+](=O)[O-])cc3C2=O)cc1 | inconclusive: -31.5% |
| CCNc1nc(N)nc(Oc2ccc(C(=O)OC)cc2)n1 | inconclusive: -30.7% |
| CC1Cc2ccccc2N1C(=O)CSc1nnc(NC(=O)Cc2cccs2)s1 (configuration not stated) | inconclusive: -35.6% |
| CCC(=O)N1CCc2cc(Br)cc(S(=O)(=O)CCC(=O)NCc3ccco3)c21 | active: -119% |
| C[C@@H](Nc1nc(-c2ccccc2)nc2c1oc1ccccc12)C(=O)O | inconclusive: -42.5% |
| O=C(N/N=C/c1ccccn1)c1cc(-c2ccncc2)nc2ccccc12 | inconclusive: -54.5% |
| CC(C)C(=O)NC(=S)Nc1ccccc1C(=O)NC1CCCCC1 | active: -114% |
| O=C(/C=C\c1ccco1)Nc1cc([N+](=O)[O-])ccc1F | active: -134% |
| O=C(O)c1ccc(NC2=C(N3CCOCC3)C(=O)c3ccccc3C2=O)cc1 | inconclusive: -78.6% |
| COc1ccccc1CNc1n[nH]c(NCc2ccccc2OC)n1 | inconclusive: -35.6% |
| CCOC(=O)C1CCN(C(=O)Nc2ccc(OC)c(OC)c2)CC1 | inconclusive: -47.5% |
| Cc1cccc(OCCCSc2nc3ccccc3[nH]2)c1 | inconclusive: -31.5% |

Ordered by SMILES length (falling): part of the list above

| SMILES | activity change (PNC), negative = inhibition |
| --- | --- |
| CC1Cc2ccccc2N1C(=O)CSc1nnc(NC(=O)Cc2cccs2)s1 (configuration not stated) | inconclusive: -35.6% |
| COc1ccccc1CNc1n[nH]c(NCc2ccccc2OC)n1 | inconclusive: -35.6% |
| CCNc1nc(N)nc(Oc2ccc(C(=O)OC)cc2)n1 | inconclusive: -30.7% |
| Cc1cccc(OCCCSc2nc3ccccc3[nH]2)c1 | inconclusive: -31.5% |

Further results:

| SMILES | activity change (PNC), negative = inhibition |
| --- | --- |
| O=C1Nc2ccc(Br)cc2C1=Nc1ccc(-c2nnc3n2CCCCC3)cc1 | inconclusive: -35.1% |
| CCN(CC)C(=O)CSCc1cnn(-c2ccccc2)c1-n1cccc1 | inconclusive: -43.1% |
| COc1cc(C(=O)OCC(=O)c2cc(C)n(C)c2C)cc(NC(=O)c2ccco2)c1OC | inconclusive: -38.6% |
| Cc1cc(=O)[nH]c(SCc2nnnn2-c2ccc(Cl)cc2)n1 | inconclusive: -62.2% |
| CCn1c(SCc2nc3ccccc3[nH]2)nnc1-c1ccncc1 | inconclusive: -34.9% |
| COc1cccc2cc(C(=O)C3=C(O)C(=O)N(CCCN(C)C)C3c3ccncc3)oc12 (configuration not stated) | inconclusive: -49% |
| COCc1cc(=O)[nH]c2cc(NC(=O)C3CC3)c(C)cc12 | inconclusive: -66.8% |
| COc1cccc(NC(=O)CN2CCN(S(=O)(=O)c3ccc(F)cc3)CC2)c1 | active: -111% |
| COc1ccc(CNC(=O)C2CCCN(S(=O)(=O)c3cnc[nH]3)C2)cc1 (configuration not stated) | inconclusive: -46.3% |
| COc1cc2cc(C(=O)O)[nH]c2c(OC)c1OC | active: -97.2% |
| c1ccc2c(c1)oc1c(N3CCN(Cc4ccc5c(c4)OCO5)CC3)ncnc12 | inconclusive: -36.6% |
| COc1ccc2c(c1)CC/C(=C\C=C\c1ccccc1)C2=O | inactive: -16.7% |
| COc1ccc(C2=NN(C(=O)c3cccnc3)C(c3ccccc3)C2)cc1 (configuration not stated) | inconclusive: -56.5% |
| CNC(=O)C(=O)NCC1OCCCN1S(=O)(=O)c1cccs1 (configuration not stated) | inactive: 17.2% |
| COCCn1c(C)cc(C(=O)COC(=O)c2n[nH]c3ccccc23)c1C | inconclusive: -66.2% |
| Cc1cc(-c2c(C)[nH]n(-c3ccc(Cl)cc3)c2=O)n(-c2ccccc2)n1 | inconclusive: -62.7% |
| CC1CCc2nn(CC(=O)NCCN3CCOCC3)cc2C1 (configuration not stated) | active: -82% |
| CC1(C)CC(=O)C(C(c2ccncc2)C2C(=O)CC(C)(C)CC2=O)C(=O)C1 | active: -86.7% |
| O=[N+]([O-])c1cc(C(F)(F)F)ccc1Sc1ccc2ccccc2n1 | inactive: -20.3% |
